Reference: publication PMC4829432, “T-box3 is a ciliary protein and regulates stability of the Gli3 transcription factor to control digit number” (eLife, 2016)
These are yes or no findings as the source states them, for the method shown. Binding seen in cells or lysates may run through a third protein. A yes stands for co-enrichment or nearness to the bait. Other partners may have been found.

Molecular target: T1, T-box3 (Tbx3), endogenous mouse protein (mouse (endogenous in E10.5 embryos)) (UniProt P70324)
T1 sequence: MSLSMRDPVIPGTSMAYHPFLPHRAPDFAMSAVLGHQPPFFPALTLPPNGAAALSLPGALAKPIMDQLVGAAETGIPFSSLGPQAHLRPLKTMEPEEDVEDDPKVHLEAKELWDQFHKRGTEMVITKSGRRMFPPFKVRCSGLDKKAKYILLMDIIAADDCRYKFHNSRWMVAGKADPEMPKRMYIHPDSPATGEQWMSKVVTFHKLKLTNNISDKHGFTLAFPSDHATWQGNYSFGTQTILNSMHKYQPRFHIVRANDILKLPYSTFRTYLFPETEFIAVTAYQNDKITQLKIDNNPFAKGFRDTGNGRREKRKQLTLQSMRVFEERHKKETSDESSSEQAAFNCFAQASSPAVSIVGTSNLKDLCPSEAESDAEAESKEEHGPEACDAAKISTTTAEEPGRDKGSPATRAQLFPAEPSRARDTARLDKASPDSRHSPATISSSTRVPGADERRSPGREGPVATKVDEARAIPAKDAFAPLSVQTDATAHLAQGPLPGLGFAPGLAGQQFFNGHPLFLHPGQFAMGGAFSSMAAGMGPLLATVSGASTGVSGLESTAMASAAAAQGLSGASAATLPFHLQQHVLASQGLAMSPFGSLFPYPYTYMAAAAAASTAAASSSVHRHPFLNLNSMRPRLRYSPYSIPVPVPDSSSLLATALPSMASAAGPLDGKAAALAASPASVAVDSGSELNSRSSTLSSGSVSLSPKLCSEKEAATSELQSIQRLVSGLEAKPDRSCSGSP
Assay: affinity purification with mass spectrometry; Tbx3 co-immunoprecipitation on E10.5 mouse embryo lysates, followed by mass spectrometry; endogenous proteins

binding: binds
B1: Kif7, endogenous mouse protein (natural protein, mouse (endogenous in E10.5 embryos), UniProt B7ZNG0 1-1348, looked up)
chain: MGLEAQRLPGAEEAPVRVALRVRPLLPKELLHGHQSCLRVEPERGRITLGRDRHFGFHVVLGEDTGQEAVYQACVQPLLEAFFEGFNATVFAYGQTGSGKTYTMGEASVASLHEDEQGIIPRAMAEAFKLIDENDLLDCLVHVSYLELYKEEFRDLLEVGTASRDIQLREDDRGNVVLCGVKEVDVEGLDEVLSLLEMGNAARHTGATHFNRLSSRSHTVFTVTLEQRGRTPSRLPRPAAGHLLVSKFHFVDLAGSERVLKTGSTGERLKESIQINSTLLALGNVISALGDPQRRGSHIPYRDSKITRILKDSLGGNAKTVMIACVSPSSSDFDETLNTLNYASRAQNIRNRATVNWHPEAERVPEEQAAGARGPPRHRSETRIIHRGRRVPCPAVGSAAVAAGLGAECARCRARTSAAYSLLRELQAEPGLPGAAARKVRDWLCAVEGERSTLSSASGPDSGIESAPAEDQAAQGTSGRKGDEGTQQLLTLQSQVARLEEENRDFLAALEDAMEQYKLQSDRLREQQEEMVELRLRLELAQPGWGAPGLLQGLPPGSFVPRPHTAPLGGAHTHMLGMMPSTCLPGEEVSSEQQVVSGKEVKAEVLAQADKLRSASSTTSEEEGEEEEEEEEEEEEPPRRTLYLRRNGISNWSQRAGLSPGSPPDRKGPEVCPEEPAAAIPAPQAVGSGKVPVQTRQAPAAMASEWRLAQAQQKIRELAINIRMKEELIGELVRTGKAAQALNRQHSQRIRELEQEAERVRAELCEGQRQLRELEGREPQDASERSRLQEFRKRVAAAQSQVQVLKEKKQATERLVSLSAQSETRLQELERNVQLMRRQQGQLQRRLREETEQKRRLETEMNKRQHRVKELELKHEQQQKILKIKTEEIAAFQRKRRSGSNGSVVSLEQQQKIEEQKKWLDQEMEKVLQQRRALEELGEELRKREVILAKKEALMQEKTGLESKRLRSSQALNEDIVRVSSRLEHLEKELSEKSGQLRQGSAQNQQQIRGEIDTLRQEKDSLLKQRLEIDSKLRQGSLLSPEEERTLFQLDEAIEALDAAIEYKNEAITCRQRVLRASASLLSQCEMNLMAKLSYLSSSETRALLCKYFDKVVTLREEQHQQQIAFSELEMQLEEQQRLVYWLEVALERQRLEMDRQLTLQQKEHEQNVQLLLQQGRDHLGEGLADSKRQYEARIHALEKELGRHMWINQELKQKLSAGSTAGQSQGCERRSLCLENRQCLGNEDGLHPAAPEPLWQSSLLEGVSRVWDESRDLVHAPLPLTWKRSSLCSEQGSSEESRVRETTEPPVGRVLPMGEVGLSWNFGPLPKPRWEPRRTSPGMIDVRKNPL
notes: Kif7, ciliary kinesin family protein, mouse, endogenous in E10.5 forelimb buds and whole embryos; source: endogenous, E10.5 mouse forelimb bud lysate or E10.5 whole embryo lysate (control or Tbx3 null)
